Test results reported in PMC6073104.
These are yes or no findings as the source states them, for the method shown. Binding seen in cells or lysates may run through a third protein. Some binding calls cover weakened binding; strength is not graded here.

Protein sequences, listed by entry. Tags and fused reporters are not part of them.
UniProt P26196: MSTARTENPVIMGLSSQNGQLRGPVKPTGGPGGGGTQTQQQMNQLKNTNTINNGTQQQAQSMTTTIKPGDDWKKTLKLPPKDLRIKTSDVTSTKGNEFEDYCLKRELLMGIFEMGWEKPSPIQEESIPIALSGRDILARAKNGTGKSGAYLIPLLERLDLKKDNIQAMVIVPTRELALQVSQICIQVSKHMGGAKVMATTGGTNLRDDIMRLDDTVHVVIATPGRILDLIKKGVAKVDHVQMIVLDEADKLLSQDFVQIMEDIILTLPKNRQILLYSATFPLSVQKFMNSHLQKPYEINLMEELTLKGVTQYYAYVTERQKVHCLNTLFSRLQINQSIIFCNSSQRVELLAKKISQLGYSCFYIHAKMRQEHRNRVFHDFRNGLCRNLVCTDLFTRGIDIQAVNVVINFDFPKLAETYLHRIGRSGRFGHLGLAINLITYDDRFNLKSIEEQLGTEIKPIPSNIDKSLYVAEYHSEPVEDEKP

Biological target: DDX6, endogenous in HeLa cells (human (endogenous in HeLa)) (UniProt P26196)
Assay: co-IP; reverse approach: DDX6 immunoprecipitated, RIG-I detected (Figure S1)

binding: binds
B1: RIG-I, endogenous in HeLa cells (protein, UniProt O95786 1-925)
chain: MTTEQRRSLQAFQDYIRKTLDPTYILSYMAPWFREEEVQYIQAEKNNKGPMEAATLFLKFLLELQEEGWFRGFLDALDHAGYSGLYEAIESWDFKKIEKLEEYRLLLKRLQPEFKTRIIPTDIISDLSECLINQECEEILQICSTKGMMAGAEKLVECLLRSDKENWPKTLKLALEKERNKFSELWIVEKGIKDVETEDLEDKMETSDIQIFYQEDPECQNLSENSCPPSEVSDTNLYSPFKPRNYQLELALPAMKGKNTIICAPTGCGKTFVSLLICEHHLKKFPQGQKGKVVFFANQIPVYEQQKSVFSKYFERHGYRVTGISGATAENVPVEQIVENNDIIILTPQILVNNLKKGTIPSLSIFTLMIFDECHNTSKQHPYNMIMFNYLDQKLGGSSGPLPQVIGLTASVGVGDAKNTDEALDYICKLCASLDASVIATVKHNLEELEQVVYKPQKFFRKVESRISDKFKYIIAQLMRDTESLAKRICKDLENLSQIQNREFGTQKYEQWIVTVQKACMVFQMPDKDEESRICKALFLYTSHLRKYNDALIISEHARMKDALDYLKDFFSNVRAAGFDEIEQDLTQRFEEKLQELESVSRDPSNENPKLEDLCFILQEEYHLNPETITILFVKTRALVDALKNWIEGNPKLSFLKPGILTGRGKTNQNTGMTLPAQKCILDAFKASGDHNILIATSVADEGIDIAQCNLVILYEYVGNVIKMIQTRGRGRARGSKCFLLTSNAGVIEKEQINMYKEKMMNDSILRLQTWDEAVFREKILHIQTHEKFIRDSQEKPKPVPDKENKKLLCRKCKALACYTADVRVIEECHYTVLGDAFKECFVSRPHPKPKQFSSFEKRAKIFCARQNCSHDWGIHVKYKTFEIPVIKIESFVVEDIATGVQTLYSKWKDFHFEKIPFDPAEMSK
